Some of the results follow.
compound: COc1ccc(Cn2ccc3cc(C)c(C(=O)NO)cc32)cc1; test: dose-dependent thermal stabilisation call (2D-TPP, DLPTP, 10% FDR) (binary (1 = stabilised)); higher = stabilised by the compound; settings: system: HL-60 intact cells; concentration range 0.04-10 µM
Procedure: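 2D thermal proteome profiling in intact HL-60 cells treated with BRD-3811 (0, 0.04, 0.29, 2, 10 uM) for 90 min at 37 C, then heated 3 min at one of 12 temperatures (42-63.9 C). Soluble protein was quantified by TMT10 MS. The value is the DLPTP call of the paper: dose-dependent thermal stabilisation over all temperatures at 10% FDR (F-test of a dose-response against a flat model); one experiment, one call per tested protein.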

Protein sequences, listed by entry. Tags and fused reporters are not part of them. Lines headed by an entry give the natural chain unless they say otherwise; changes in a name come on top.
UniProt P31944: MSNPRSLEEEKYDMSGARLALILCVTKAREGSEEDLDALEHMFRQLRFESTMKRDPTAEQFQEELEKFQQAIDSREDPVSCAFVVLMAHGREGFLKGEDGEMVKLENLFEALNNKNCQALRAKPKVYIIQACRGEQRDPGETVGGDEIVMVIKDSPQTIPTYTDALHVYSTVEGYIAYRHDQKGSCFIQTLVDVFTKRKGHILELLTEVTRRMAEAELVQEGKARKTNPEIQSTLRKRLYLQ
UniProt Q8IYL3: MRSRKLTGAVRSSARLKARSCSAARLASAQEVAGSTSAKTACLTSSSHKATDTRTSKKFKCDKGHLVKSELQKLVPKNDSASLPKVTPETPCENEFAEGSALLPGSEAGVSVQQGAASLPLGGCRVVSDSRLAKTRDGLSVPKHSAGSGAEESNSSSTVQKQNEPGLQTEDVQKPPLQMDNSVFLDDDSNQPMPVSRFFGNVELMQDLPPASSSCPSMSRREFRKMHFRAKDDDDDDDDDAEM
UniProt Q8IWD4: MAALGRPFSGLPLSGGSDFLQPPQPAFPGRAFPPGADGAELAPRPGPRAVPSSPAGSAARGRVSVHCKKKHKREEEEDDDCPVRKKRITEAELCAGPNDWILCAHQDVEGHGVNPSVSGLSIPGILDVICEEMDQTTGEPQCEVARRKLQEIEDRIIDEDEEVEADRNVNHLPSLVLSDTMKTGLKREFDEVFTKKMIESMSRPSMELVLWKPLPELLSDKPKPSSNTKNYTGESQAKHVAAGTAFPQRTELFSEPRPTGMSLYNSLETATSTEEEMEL
UniProt Q6PII3: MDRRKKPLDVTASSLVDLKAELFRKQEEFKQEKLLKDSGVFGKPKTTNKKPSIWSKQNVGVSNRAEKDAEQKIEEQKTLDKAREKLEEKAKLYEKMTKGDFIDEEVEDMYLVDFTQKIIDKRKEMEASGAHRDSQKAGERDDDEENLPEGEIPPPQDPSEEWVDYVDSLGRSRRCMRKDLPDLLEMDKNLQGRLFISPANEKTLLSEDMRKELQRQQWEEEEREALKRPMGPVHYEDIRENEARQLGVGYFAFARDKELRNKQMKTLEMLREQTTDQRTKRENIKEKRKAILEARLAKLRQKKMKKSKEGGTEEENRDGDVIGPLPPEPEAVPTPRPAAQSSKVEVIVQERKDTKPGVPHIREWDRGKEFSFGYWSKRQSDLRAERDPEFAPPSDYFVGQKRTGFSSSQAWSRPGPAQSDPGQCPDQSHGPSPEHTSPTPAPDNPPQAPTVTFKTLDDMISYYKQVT
UniProt Q08722, whole entry: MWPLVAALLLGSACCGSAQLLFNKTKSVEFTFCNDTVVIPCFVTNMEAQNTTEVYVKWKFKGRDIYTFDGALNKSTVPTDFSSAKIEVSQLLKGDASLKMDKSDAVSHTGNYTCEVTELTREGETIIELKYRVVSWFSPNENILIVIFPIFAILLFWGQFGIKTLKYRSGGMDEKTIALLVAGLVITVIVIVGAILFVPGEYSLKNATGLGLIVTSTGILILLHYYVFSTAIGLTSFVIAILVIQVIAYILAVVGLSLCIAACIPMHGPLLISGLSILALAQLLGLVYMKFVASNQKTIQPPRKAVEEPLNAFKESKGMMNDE
UniProt Q3KRA6: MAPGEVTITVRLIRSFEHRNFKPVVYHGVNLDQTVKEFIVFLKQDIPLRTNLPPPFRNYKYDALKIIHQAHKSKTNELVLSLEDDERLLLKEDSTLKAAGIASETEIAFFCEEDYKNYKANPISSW
UniProt Q8WWC4: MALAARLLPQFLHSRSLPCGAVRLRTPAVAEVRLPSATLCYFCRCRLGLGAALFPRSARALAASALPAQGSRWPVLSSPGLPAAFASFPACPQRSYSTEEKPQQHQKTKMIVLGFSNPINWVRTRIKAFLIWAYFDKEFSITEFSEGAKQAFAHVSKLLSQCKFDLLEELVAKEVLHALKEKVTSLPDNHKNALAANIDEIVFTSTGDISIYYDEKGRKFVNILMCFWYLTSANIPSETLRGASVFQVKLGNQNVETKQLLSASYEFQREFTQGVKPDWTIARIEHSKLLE
UniProt Q49AR2: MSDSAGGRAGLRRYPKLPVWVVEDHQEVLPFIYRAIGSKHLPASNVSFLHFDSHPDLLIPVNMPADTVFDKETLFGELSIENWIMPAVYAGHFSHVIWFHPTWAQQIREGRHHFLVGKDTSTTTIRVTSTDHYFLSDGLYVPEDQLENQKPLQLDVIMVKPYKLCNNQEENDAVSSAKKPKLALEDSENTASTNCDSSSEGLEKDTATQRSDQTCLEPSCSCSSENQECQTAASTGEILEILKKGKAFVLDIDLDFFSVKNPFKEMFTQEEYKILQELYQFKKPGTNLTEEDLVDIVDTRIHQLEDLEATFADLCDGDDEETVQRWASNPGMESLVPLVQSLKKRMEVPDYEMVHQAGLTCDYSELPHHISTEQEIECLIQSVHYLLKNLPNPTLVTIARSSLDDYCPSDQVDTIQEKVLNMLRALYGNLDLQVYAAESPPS
UniProt O75909: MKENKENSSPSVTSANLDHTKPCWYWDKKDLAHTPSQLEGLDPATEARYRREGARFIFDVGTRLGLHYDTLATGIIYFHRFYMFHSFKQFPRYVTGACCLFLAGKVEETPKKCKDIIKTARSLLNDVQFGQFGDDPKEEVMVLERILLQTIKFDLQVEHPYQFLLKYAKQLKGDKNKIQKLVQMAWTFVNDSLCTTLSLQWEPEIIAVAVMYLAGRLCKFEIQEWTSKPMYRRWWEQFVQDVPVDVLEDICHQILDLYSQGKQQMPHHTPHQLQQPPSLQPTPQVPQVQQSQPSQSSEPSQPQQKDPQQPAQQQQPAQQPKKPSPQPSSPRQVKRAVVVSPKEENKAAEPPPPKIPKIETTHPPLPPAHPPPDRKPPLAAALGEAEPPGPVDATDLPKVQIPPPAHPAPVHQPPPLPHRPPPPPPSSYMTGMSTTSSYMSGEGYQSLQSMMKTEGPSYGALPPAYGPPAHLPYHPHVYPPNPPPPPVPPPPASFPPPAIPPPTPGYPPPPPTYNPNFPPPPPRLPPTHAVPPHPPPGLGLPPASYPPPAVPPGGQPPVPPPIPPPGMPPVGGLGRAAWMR
UniProt Q6PJW8: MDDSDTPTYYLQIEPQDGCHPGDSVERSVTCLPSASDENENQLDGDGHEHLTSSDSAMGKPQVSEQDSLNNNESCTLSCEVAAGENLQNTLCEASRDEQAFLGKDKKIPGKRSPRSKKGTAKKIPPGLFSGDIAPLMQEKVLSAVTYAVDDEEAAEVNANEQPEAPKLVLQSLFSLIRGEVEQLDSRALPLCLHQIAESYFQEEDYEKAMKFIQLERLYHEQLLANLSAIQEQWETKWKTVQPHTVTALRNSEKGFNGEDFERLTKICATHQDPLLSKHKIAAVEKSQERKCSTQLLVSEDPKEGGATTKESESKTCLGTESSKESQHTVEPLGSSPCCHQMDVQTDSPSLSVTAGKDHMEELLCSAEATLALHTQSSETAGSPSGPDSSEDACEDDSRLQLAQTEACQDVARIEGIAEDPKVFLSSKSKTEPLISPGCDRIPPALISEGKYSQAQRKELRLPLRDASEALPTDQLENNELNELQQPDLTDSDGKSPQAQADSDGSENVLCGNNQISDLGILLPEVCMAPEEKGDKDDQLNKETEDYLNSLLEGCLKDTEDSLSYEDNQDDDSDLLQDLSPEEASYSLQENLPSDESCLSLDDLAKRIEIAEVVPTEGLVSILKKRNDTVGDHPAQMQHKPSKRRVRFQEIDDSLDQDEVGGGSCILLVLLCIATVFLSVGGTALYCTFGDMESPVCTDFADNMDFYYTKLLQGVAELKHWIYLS
UniProt Q9H9S4: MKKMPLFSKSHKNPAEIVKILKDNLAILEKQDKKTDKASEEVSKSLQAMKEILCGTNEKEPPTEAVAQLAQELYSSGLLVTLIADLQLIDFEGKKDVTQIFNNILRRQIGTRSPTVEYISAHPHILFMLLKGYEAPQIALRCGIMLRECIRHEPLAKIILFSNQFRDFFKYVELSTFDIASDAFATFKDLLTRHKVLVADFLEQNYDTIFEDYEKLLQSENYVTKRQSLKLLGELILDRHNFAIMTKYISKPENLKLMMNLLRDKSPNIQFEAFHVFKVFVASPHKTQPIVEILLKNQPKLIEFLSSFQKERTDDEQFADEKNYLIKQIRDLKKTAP
UniProt P15529: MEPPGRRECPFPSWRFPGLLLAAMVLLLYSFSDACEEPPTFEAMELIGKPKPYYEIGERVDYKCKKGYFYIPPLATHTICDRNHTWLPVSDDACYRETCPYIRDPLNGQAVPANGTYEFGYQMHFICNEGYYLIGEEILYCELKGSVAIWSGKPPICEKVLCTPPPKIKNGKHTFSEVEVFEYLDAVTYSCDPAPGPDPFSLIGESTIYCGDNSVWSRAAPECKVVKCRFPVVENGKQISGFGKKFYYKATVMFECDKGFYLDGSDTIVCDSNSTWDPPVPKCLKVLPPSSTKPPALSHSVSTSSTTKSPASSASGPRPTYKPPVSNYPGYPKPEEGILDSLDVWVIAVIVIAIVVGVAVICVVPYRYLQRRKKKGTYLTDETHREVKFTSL
UniProt Q96BW9: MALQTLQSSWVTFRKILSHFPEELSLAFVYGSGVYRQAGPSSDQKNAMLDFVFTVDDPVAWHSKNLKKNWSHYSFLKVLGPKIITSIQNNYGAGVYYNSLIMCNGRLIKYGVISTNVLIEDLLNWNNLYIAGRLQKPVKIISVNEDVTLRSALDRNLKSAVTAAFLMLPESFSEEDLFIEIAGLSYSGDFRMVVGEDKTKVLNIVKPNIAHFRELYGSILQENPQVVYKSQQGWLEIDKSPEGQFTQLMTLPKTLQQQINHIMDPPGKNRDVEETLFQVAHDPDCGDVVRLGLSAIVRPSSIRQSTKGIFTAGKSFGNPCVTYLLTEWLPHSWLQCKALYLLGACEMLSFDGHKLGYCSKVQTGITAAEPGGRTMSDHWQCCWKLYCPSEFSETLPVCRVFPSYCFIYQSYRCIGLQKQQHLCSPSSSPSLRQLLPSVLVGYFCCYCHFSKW
UniProt Q9ULG6: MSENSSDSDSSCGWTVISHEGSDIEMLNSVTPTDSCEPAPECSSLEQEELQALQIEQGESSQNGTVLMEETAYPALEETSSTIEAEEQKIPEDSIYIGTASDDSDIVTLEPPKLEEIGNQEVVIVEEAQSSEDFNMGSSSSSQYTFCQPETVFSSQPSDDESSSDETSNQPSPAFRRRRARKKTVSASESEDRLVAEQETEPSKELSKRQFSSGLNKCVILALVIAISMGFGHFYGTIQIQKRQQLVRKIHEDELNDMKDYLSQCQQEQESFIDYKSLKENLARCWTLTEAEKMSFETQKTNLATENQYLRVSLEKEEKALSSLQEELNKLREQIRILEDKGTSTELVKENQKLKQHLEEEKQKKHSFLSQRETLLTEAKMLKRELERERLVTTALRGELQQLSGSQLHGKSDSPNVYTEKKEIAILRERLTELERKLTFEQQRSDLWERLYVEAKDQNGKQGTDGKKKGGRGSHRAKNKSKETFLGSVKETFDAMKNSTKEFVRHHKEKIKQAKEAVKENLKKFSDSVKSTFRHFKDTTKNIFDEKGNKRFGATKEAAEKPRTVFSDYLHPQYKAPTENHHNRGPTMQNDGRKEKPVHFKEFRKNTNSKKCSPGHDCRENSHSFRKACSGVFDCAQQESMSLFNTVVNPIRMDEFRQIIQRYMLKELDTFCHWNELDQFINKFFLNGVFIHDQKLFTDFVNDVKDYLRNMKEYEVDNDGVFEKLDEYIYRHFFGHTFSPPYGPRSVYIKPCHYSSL
UniProt Q96KF7: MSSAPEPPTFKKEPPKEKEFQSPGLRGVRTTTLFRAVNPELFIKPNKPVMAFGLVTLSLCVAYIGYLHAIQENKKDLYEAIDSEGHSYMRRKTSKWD
UniProt Q9BU61: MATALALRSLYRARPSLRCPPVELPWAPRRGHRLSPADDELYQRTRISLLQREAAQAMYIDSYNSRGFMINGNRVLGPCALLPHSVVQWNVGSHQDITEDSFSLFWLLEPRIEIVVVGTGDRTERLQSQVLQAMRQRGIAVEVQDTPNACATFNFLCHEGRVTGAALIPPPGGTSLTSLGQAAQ
UniProt Q9BW85: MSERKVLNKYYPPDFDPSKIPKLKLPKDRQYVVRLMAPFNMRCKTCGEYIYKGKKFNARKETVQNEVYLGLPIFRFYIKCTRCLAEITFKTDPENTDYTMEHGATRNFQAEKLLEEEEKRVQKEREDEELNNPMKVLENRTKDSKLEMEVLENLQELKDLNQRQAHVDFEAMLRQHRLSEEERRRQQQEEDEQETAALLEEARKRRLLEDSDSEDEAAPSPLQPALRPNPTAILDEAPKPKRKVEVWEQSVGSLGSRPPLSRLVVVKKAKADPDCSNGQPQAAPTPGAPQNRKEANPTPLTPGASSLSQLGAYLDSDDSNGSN
UniProt A2RUC4: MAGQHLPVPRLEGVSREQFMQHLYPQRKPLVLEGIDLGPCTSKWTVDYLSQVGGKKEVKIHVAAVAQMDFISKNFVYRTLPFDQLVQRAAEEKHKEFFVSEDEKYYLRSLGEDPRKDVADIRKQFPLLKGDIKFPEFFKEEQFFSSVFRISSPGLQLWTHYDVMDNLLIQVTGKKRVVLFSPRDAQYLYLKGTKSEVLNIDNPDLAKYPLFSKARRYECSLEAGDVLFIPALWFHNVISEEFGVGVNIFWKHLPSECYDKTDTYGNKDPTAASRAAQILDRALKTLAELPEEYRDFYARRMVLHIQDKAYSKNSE

Target	dose-dependent thermal stabilisation call
CAPZA2 (UniProt P47755)	inactive: 0
CCDC44 (UniProt Q9BSH4)	inactive: 0
CASP14 (UniProt P31944)	inactive: 0
C1ORF174 (UniProt Q8IYL3)	inactive: 0
CCDC117 (UniProt Q8IWD4)	inactive: 0
C4ORF43 (UniProt Q96EY4)	inactive: 0
C1GALT1 (UniProt Q9NS00)	inactive: 0
C7ORF30 (UniProt Q96EH3)	inactive: 0
C3ORF19 (UniProt Q6PII3)	inactive: 0
CCDC93 (UniProt Q567U6)	inactive: 0
CD47 (UniProt Q08722)	inactive: 0
C2ORF76 (UniProt Q3KRA6)	inactive: 0
C2ORF47 (UniProt Q8WWC4)	inactive: 0
CASC4 (UniProt Q6P4E1)	inactive: 0
CC2D1B (UniProt Q5T0F9)	inactive: 0
C5ORF22 (UniProt Q49AR2)	inactive: 0
CCNK (UniProt O75909)	inactive: 0
C9ORF80 (UniProt Q9NRY2)	inactive: 0

Quoted from the listing:
dose-dependent thermal stabilisation call with CCNK (UniProt O75909) reads inactive: 0
dose-dependent thermal stabilisation call with C9ORF80 (UniProt Q9NRY2) reads inactive: 0

Going on with the list:

Target	dose-dependent thermal stabilisation call
C1ORF71 (UniProt Q6PJW8)	inactive: 0
C3ORF1 (UniProt Q9NPL8)	inactive: 0
CAB39L (UniProt Q9H9S4)	inactive: 0
C1ORF131 (UniProt Q8NDD1)	inactive: 0
CD46 (UniProt P15529)	inactive: 0
C3ORF31 (UniProt Q96BW9)	inactive: 0
C20ORF27 (UniProt Q9GZN8)	inactive: 0
CBX8 (UniProt Q9HC52)	inactive: 0
CCPG1 (UniProt Q9ULG6)	inactive: 0
C1ORF57 (UniProt Q9BSD7)	inactive: 0
CCT6B (UniProt Q92526)	inactive: 0
C1ORF31 (UniProt Q5JTJ3)	inactive: 0
CBS (UniProt P35520)	inactive: 0
C6ORF162 (UniProt Q96KF7)	inactive: 0
C3ORF60 (UniProt Q9BU61)	inactive: 0
CCDC94 (UniProt Q9BW85)	inactive: 0
C2ORF60 (UniProt A2RUC4)	inactive: 0
CABIN1 (UniProt Q9Y6J0)	inactive: 0

Reference: the supplement of paper PMC7666118
